Source: paper PMC3215702, “The Nuclear Pore Complex Mediates Binding of the Mig1 Repressor to Target Promoters” (PLoS ONE, 2011)
Results are given in words; binding and its absence hold for the method and conditions named. Binding seen in cells or lysates may run through a third protein. Some results given as binding are weak or reduced against the parent protein; the word gives no strength.

By UniProt entry, the sequences of proteins in these tests, tags left out.
UniProt P27705: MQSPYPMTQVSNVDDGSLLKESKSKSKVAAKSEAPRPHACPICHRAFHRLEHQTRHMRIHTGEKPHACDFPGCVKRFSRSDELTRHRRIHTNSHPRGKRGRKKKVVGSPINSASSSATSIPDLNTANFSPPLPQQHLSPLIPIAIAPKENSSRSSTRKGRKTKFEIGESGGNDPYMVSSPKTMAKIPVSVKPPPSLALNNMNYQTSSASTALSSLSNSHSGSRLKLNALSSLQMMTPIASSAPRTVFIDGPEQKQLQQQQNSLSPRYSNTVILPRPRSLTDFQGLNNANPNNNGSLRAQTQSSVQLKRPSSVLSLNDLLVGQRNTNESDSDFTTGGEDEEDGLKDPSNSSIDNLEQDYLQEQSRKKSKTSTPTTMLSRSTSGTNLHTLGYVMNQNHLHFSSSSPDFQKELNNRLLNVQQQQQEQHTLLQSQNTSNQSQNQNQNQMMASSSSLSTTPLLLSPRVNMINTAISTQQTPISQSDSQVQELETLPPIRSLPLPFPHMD
UniProt P52891: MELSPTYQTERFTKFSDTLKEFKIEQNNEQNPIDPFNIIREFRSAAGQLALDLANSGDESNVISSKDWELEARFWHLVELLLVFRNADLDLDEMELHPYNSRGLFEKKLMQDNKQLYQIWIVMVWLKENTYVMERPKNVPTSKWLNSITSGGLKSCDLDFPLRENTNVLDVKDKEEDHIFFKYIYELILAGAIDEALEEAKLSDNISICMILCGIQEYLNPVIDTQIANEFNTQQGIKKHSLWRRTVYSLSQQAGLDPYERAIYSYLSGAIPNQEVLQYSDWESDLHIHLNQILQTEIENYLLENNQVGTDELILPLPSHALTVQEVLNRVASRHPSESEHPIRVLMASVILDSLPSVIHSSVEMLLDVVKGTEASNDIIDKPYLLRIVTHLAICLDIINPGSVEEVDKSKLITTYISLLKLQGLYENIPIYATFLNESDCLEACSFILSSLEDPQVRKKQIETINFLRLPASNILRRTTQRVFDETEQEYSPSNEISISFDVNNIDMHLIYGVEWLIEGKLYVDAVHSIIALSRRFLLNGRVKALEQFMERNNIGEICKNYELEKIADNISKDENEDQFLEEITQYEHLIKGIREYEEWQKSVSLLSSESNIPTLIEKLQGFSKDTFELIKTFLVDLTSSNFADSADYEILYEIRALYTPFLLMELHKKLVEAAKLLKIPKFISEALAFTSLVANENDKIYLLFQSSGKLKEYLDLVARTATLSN

Target: T1, Mig1-GFP fusion protein (S. cerevisiae, UniProt P27705 1-504)
T1 construct: Mig1, glucose-regulated repressor of S. cerevisiae; GFP tag integrated at the MIG1 locus; Called a fully functional fusion; also called GFP-tagged Mig1; source: S. cerevisiae, Mig1-GFP strain from the Yeast GFP Clone collection (Invitrogen), integrated GFP tag; in crude lysate or cell fractions
Assay: co-IP; anti-GFP antibody added to crude lysate of glucose-grown cells, protein A sepharose; eluate blotted and probed with anti-lexA antibody (anti-GFP as control)

- binding: binds
Substance: Nup84-lexA (from UniProt P52891 1-726)
